{"sequences": {"note": "Amino acid sequences for entries named in this document (tags omitted). A change or cut given only in a name is not applied to a line headed by its entry.", "UniProt O00391": "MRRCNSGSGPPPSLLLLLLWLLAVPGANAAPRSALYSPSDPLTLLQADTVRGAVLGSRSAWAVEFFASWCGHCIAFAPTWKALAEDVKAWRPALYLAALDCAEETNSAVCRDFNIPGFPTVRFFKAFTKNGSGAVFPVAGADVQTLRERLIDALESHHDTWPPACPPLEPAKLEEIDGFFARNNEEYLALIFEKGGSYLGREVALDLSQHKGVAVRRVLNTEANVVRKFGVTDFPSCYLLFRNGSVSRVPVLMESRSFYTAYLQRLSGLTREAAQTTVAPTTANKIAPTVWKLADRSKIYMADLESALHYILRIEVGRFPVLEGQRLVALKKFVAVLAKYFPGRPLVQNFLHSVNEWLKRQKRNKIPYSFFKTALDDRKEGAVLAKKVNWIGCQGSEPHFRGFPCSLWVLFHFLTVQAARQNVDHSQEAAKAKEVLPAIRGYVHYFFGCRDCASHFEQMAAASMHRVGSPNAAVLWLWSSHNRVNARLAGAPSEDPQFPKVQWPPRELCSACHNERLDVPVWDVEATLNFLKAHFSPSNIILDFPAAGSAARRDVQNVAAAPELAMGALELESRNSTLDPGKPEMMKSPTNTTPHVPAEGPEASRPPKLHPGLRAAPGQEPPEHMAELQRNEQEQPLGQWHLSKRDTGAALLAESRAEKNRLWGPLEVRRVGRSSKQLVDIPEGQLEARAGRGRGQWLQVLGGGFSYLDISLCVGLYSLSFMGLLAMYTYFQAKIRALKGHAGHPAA"}, "source": "PubChem BioAssay AID1347422", "about": "(Sanford-Burnham Center for Chemical Genomics, 2020)", "note": "Over roughly 1,000 compounds, “thermal shift dTm” has its median near 0.19; the highest 2% begin near 1.7. This is one part of the list. Activity calls are given as the source filed them.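 The calls were made as follows: active = mean rise in melting temperature of at least 1 degC over same-plate control wells; inactive = below that, where a call was filed.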", "data": [{"target": "Sulfhydryl oxidase 1 (Homo sapiens) (UniProt O00391)", "test": "QSOX1 binders by thermal stabilization, confirmation, QSOX1 inhibitor project, biophysical, protein thermal shift, single concentration (AID 1347422);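 also: dTm is compound Tm minus mean Tm of DMSO-only wells on that plate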", "conditions": "recombinant hQSOX1 thermal shift, Sypro Orange, at 25 µM, stronger effect = higher value", "values": [{"smiles": "O=C(Cc1ccc(Cl)cc1)Nc1ccc(-c2nc3ccccc3s2)cc1", "thermal shift dTm": "0.05 °C"}, {"smiles": "Cc1ccc(OCCOCCOc2cccc3cccnc23)c(C(C)(C)C)c1", "thermal shift dTm": "0.24 °C"}, {"smiles": "O=S1(=O)CC2C(C1)N(c1cccc(C(F)(F)F)c1)C(=S)N2c1ccccc1", "note": "(stereo not drawn)", "thermal shift dTm": "inactive: -0.16 °C"}, {"smiles": "Cc1nc(-c2cccc(NC(=O)c3cccc(F)c3)c2)cs1", "thermal shift dTm": "active: 3.41 °C"}, {"smiles": "O=C(CC(c1ccccc1)c1cc(Br)ccc1O)NCc1ccccc1Cl", "note": "(stereo not drawn)", "thermal shift dTm": "0.25 °C"}, {"smiles": "CC(=O)Nc1ccc(NC(=O)c2cc3ccccc3o2)cc1", "thermal shift dTm": "active: 1.73 °C"}, {"smiles": "COc1cccc(C(=O)NCCC(=O)Nc2cccc(F)c2)c1", "thermal shift dTm": "0.23 °C"}, {"smiles": "Cc1ccc(S(=O)(=O)Nc2cccc(NC(=O)c3cccs3)c2)cc1", "thermal shift dTm": "0.48 °C"}, {"smiles": "Cc1ccc2nc(-c3ccc(N=Cc4ccccc4O)cc3)sc2c1", "thermal shift dTm": "0.1 °C"}, {"smiles": "COC(=O)c1ccc(N2CCN(CCNC(=O)Nc3ccc(OC)cc3)CC2)cc1", "thermal shift dTm": "0.42 °C"}, {"smiles": "COc1cc(/C=C2\\N=C(SCc3ccccc3)SC2=O)ccc1OCc1ccccc1", "thermal shift dTm": "0.63 °C"}, {"smiles": "CCOC(=O)c1ccc(NC(=S)NCC(O)c2ccccc2)cc1", "note": "(stereo not drawn)", "thermal shift dTm": "0.1 °C"}, {"smiles": "COc1ccccc1CCNC(=O)c1cc(Cc2ccccc2Cl)no1", "thermal shift dTm": "0.05 °C"}, {"smiles": "COc1cc(NC(=O)c2csc3ccccc23)cc(OC)c1OC", "thermal shift dTm": "0.27 °C"}, {"smiles": "Cc1ccc(NC(=O)C(C)Sc2nc3c(c(=O)[nH]2)CCCC3)cc1Cl", "note": "(stereo not drawn)", "thermal shift dTm": "0.01 °C"}, {"smiles": "CCC(C)C(=O)Nc1ccc(-c2nc3ccc(C(=O)c4ccccc4)cc3[nH]2)cc1", "note": "(stereo not drawn)", "thermal shift dTm": "inactive: -0.44 °C"}, {"smiles": "CC(=O)c1[nH]c(C)c(-c2nc(C3(c4ccc(F)cc4)CCOC3)no2)c1C", "note": "(stereo not drawn)", "thermal shift dTm": "0.18 °C"}, {"smiles": "Cc1cc(OCCn2cc(C(=S)N3CCOCC3)c3ccccc32)ccc1Cl", "thermal shift dTm": "0.02 °C"}, {"smiles": "Cc1ccc(/C=C/C(=O)NCCNC(=O)/C=C/c2ccc(C)cc2)cc1", "thermal shift dTm": "0.77 °C"}, {"smiles": "O=C(NC1CCCCC1)c1cccc(OCc2ccccc2Cl)c1", "thermal shift dTm": "0.07 °C"}, {"smiles": "O=C(Nc1ccc(Cl)cc1)NC1CC2CCC1C2", "note": "(stereo not drawn)", "thermal shift dTm": "0.52 °C"}, {"smiles": "CCC(=O)Nc1ccc(NC(=O)c2ccccc2C)c(O)c1", "thermal shift dTm": "0.27 °C"}, {"smiles": "CC(=O)Nc1ccc(C(=O)CSc2ccc3ccccc3n2)cc1", "thermal shift dTm": "active: 1.22 °C"}, {"smiles": "COc1ccc(-c2[nH]ncc2Oc2ccccc2F)c(O)c1", "thermal shift dTm": "0.05 °C"}, {"smiles": "COc1ccc(C(=O)Nc2nc(-c3cc(OC)ccc3OC)c(C)s2)cc1", "thermal shift dTm": "active: 2.73 °C"}, {"smiles": "Cc1ccc(OCCOc2ccccc2C)c(/C=C2/N=C(c3cccs3)OC2=O)c1", "thermal shift dTm": "0.16 °C"}, {"smiles": "O=C(/C=C/c1ccco1)Nc1ccc(Br)cc1F", "thermal shift dTm": "0.01 °C"}, {"smiles": "O=C(CCCc1c[nH]c2ccccc12)NCCOc1ccc(Cl)cc1", "thermal shift dTm": "inactive: -0.03 °C"}, {"smiles": "Cc1cc(N(C)C)nc(N2CCN(C(=O)Nc3cccc(F)c3)CC2)n1", "thermal shift dTm": "inactive: -0.08 °C"}, {"smiles": "COc1ccc(C(=O)Nc2ccc(Cl)c(C)n2)cc1Cl", "thermal shift dTm": "active: 1.85 °C"}, {"smiles": "O=C(Nc1ccc(Cl)cn1)c1cccc(NC(=O)c2cccs2)c1", "thermal shift dTm": "0.37 °C"}, {"smiles": "N#CCCn1cc(C(=O)Nc2nccs2)c(-c2cc3ccccc3o2)n1", "thermal shift dTm": "0.38 °C"}, {"smiles": "Cc1cc(Br)c(-c2ccc(/C=C3/SC(N)=NC3=O)o2)cc1C", "thermal shift dTm": "active: 1.03 °C"}, {"smiles": "Cc1cccc(NC(=O)Nc2ccc(C(N)=O)cc2)c1C", "thermal shift dTm": "0.6 °C"}, {"smiles": "NC(=O)c1cn(-c2ccccc2)nc1-c1cccc(Br)c1", "thermal shift dTm": "inactive: -0.72 °C"}, {"smiles": "CSC1=N/C(=C\\c2ccc(-c3ccc(Br)cc3)o2)C(=O)S1", "thermal shift dTm": "0.3 °C"}, {"smiles": "COc1c(C)cccc1C(=O)Nc1cccc2cccnc12", "thermal shift dTm": "inactive: -0.09 °C"}, {"smiles": "CN(C)c1nc2n(c(=O)n1)CCN2C(=O)Nc1ccccc1", "thermal shift dTm": "0 °C"}, {"smiles": "CCOc1ccc(NC(=O)CSc2c(-c3ccccc3)c3cc(Cl)ccc3[nH]c2=O)cc1", "thermal shift dTm": "0.68 °C"}, {"smiles": "O=C(CN(c1ccccc1F)S(=O)(=O)c1ccccc1)Nc1ccc(F)cc1F", "thermal shift dTm": "inactive: -0.03 °C"}, {"smiles": "Cc1cc(Br)ccc1OCCCCn1cnc2ccccc2c1=O", "thermal shift dTm": "0.17 °C"}, {"smiles": "O=C(COc1ccc(Cl)cc1)Nc1cccc(NC(=O)c2ccco2)c1", "thermal shift dTm": "0.71 °C"}, {"smiles": "Nc1cccc(/C=C/C(=O)c2ccccc2)c1", "thermal shift dTm": "0.57 °C"}, {"smiles": "Cc1cccc(NC(=O)c2ccc(NC(=O)c3ccccc3)cc2)n1", "thermal shift dTm": "0.32 °C"}, {"smiles": "CCC(C)c1ccccc1OCC(=O)Nc1cccc(NC(C)=O)c1", "note": "(stereo not drawn)", "thermal shift dTm": "0.41 °C"}, {"smiles": "CCn1c(SCC(=O)Nc2ccc3c(c2)OCO3)nc2sc(C)c(C)c2c1=O", "thermal shift dTm": "inactive: -0.04 °C"}, {"smiles": "CCC(=O)Nc1nc(-c2cccc(NC(=O)c3cccnc3)c2)cs1", "thermal shift dTm": "0.18 °C"}, {"smiles": "CCOc1ccc(N2C(=O)N(c3ccc(C)cc3)C3CS(=O)(=O)CC32)cc1", "note": "(stereo not drawn)", "thermal shift dTm": "0.21 °C"}, {"smiles": "COc1ccc(-c2n[nH]c(C)c2Oc2ccc(F)cc2)c(O)c1", "thermal shift dTm": "inactive: -0.09 °C"}, {"smiles": "COc1cc(C=Nc2ccc(-c3nc4ccc(C)cc4s3)cc2)ccc1O", "thermal shift dTm": "0.05 °C"}, {"smiles": "COc1ccc(Br)c(/C=C/c2ccc3cccc(O)c3n2)c1", "thermal shift dTm": "inactive: -0.13 °C"}, {"smiles": "CC(=O)Oc1ccc(-c2csc(Nc3ccccn3)n2)cc1", "thermal shift dTm": "0.21 °C"}, {"smiles": "Cc1ccccc1COc1ccc(Br)cc1/C=C1/N=C(c2ccco2)OC1=O", "thermal shift dTm": "0.82 °C"}]}]}
